Results are given in words; binding and its absence hold for the method and conditions named. Binding seen in cells or lysates may run through a third protein. Some results given as binding are weak or reduced against the parent protein; the word gives no strength.
Experiments:
[1] = biological target: mouse 5-HT2A receptor with C-terminal fused renilla luciferase (RLuc8) (mouse) (UniProt P35363); assay: FRET or BRET; BRET^1 in HEK293T cells co-transfected 1:15 with 5-HT receptor-RLuc8 and Venus-β-arrestin2; recruitment stimulated by agonist (5-HT, psychedelics, 25N series); 37 °C, 60-minute compound incubation (other time points in kinetic runs); coelenterazine h; HBSS, 20 mM HEPES, pH 7.4
[2] = biological target: 5-HT2B receptor with C-terminal fused renilla luciferase (RLuc8) (not stated (human or mouse cDNA cloned)) (UniProt P41595); assay: as above

Chains of the proteins cited; added tags and fusions are not shown.
UniProt P35363: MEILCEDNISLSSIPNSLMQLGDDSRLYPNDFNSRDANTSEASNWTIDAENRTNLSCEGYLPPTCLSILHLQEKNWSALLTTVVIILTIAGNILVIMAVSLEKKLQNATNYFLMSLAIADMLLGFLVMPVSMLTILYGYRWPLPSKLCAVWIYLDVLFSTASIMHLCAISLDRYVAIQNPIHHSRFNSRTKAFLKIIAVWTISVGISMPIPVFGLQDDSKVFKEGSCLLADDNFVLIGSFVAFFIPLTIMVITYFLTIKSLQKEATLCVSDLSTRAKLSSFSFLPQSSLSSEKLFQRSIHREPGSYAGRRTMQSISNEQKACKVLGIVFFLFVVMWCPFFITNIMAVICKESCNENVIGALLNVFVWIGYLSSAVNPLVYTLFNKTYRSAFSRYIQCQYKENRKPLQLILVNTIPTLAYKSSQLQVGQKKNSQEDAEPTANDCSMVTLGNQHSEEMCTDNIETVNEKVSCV
UniProt P41595: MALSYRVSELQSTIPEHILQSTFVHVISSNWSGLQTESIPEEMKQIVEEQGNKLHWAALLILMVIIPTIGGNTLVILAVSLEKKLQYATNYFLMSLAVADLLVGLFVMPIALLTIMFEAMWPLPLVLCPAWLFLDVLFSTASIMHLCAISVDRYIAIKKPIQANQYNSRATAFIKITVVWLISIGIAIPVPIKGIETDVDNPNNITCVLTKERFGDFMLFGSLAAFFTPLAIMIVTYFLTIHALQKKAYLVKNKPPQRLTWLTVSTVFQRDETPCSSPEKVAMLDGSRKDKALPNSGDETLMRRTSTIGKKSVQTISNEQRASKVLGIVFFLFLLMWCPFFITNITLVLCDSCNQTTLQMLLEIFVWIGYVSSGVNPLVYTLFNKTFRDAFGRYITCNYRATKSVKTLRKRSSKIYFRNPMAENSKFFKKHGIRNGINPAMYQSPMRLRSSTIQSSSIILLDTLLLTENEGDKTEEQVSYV

“Venus-tagged N-terminal β-arrestin2 (from UniProt P32121 1-409)” was tested, and the binding [1] was “binds” and the binding [2] was “binds weakly”.
